# Laboratory results reported in PubChem BioAssay AID1671190 (National Center for Advancing Translational Sciences (NCATS), 2021).
# The chains behind the UniProt entries cited, without tags or fusion partners. Where a name states a change or a piece, a line headed by the entry shows the natural chain unless it says otherwise.
# UniProt P18054: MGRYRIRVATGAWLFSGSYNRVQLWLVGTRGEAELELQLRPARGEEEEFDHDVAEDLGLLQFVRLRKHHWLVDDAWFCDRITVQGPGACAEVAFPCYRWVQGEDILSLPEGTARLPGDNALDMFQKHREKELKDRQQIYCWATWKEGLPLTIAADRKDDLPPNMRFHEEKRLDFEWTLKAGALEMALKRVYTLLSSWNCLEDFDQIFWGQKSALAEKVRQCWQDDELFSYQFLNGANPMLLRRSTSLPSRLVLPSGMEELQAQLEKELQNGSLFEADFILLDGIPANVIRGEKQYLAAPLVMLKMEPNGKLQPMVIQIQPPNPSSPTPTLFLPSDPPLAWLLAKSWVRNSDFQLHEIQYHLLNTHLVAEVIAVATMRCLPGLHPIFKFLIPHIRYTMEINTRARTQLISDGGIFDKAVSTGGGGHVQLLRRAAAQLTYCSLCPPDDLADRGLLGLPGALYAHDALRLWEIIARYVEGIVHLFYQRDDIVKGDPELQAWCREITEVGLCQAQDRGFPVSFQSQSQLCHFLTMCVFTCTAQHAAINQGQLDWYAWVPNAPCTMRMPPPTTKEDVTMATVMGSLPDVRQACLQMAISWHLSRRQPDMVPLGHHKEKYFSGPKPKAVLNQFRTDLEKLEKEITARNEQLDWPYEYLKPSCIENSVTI
# Several values for one entry are separate records, joined by “and”; a condition that tells them apart may be missing. Identical values can stand only once. Hit rate of the full screen: of about 580,000 compounds, about 6,100 (1.1%) were called active. Inconclusive means that the source gave no clear call. Such entries were picked first, then a sample of the others. Calls follow the shape of the dose curve; as a rule, active = well fitted inhibition curve with a large enough effect; inconclusive = small, poorly fitted or top-dose-only effect, or another doubt; inactive = no such curve, though single readings can be large or run the other way. Where the call is inconclusive, the potency comes from a doubtful curve fit.
# Molecular target: Polyunsaturated fatty acid lipoxygenase ALOX12 (Homo sapiens) (UniProt P18054)
# Assay: Primary qHTS assay for inhibitors of human arachidonate 12S-lipoxygenase (ALOX12): Round 2
# Conditions: purified 12hLO, xylenol orange hydroperoxide absorbance; activity change, negative = inhibition: at 108 µM (top of the series) unless noted
# Summary of the method: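 Purified human 12hLO (150 nM final) in 25 mM Hepes, 0.01% Triton X-100, pH 7.0 was preincubated 15 min at room temperature with compound. Then 40 uM arachidonic acid was added, 30 min. Hydroperoxide was read by Fe-XO absorbance ratio 573/405 nm.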
# % is scaled to controls: 0 for no effect and ±100 for the full control effect; potency is read from the fitted curve at half-maximal effect.
Compound,"activity change, negative = inhibition",Potency
Cc1ccc(NC(=S)Nc2ccc(Br)cc2)cc1,inactive: -7.27%,
Cc1c(C(=O)O)sc(=S)n1C,,"inconclusive: 56.2 µM [inhibitor, full curve, poor fit] and inconclusive: 44.7 µM [inhibitor, partial curve, poor fit]"
CCCN(CCC)c1ccc(NS(=O)(=O)c2ccc(C3CCCCC3)cc2)cc1C(=O)O,,"inconclusive: 44.7 µM [inhibitor, partial curve, poor fit]"
CCOC1=C2[C@H]([C@H]3C(=O)N(c4ccccc4)C(=O)[C@H]3C1)[C@@H](C(C)C)N(S(=O)(=O)c1ccc(C)cc1)[C@H]2c1ccccc1,,"inconclusive: 89.1 µM [inhibitor, single point]"
N#CC1=C(SCc2ccccc2Br)NC(=O)C(C#N)C12CCCCC2 (stereo not given),,"inconclusive: 39.8 µM [inhibitor, partial curve, poor fit]"
O=C(COc1ccc(-n2cnnn2)cc1)Nc1ccccc1OC(F)F,,"inconclusive: 79.4 µM [inhibitor, single point]"
CC(=O)N1CCc2cc(S(=O)(=O)NC(Cc3ccccc3)C(=O)NCc3ccccc3Cl)ccc21 (stereo not given),,"inconclusive: 158 µM [inhibitor, single point]"
CSc1nc2c(c(=O)[nH]c(=O)n2C)n1CCCc1ccccc1,,"inconclusive: 35.5 µM [inhibitor, partial curve, poor fit] and inconclusive: 50.1 µM [inhibitor, partial curve, poor fit]"
CN1CCC(N[C@H]2[C@H](O)[C@H](O)C[C@@H]2c2ccc(N3CCOCC3)nc2)CC1,,"inconclusive: 31.6 µM [inhibitor, single point]"
CC(=O)N[C@H]1C[C@@H](Cc2cc(CN(C)c3ccccc3)on2)C1(C)C,,"inconclusive: 126 µM [inhibitor, partial curve, poor fit]"
Cc1cc(OCC(=O)N2CCCC2)cc(C)c1Cl,inactive: -10.6%,
N#Cc1cccc(NC(=O)c2cc(C3CCCCN3C(=O)CCCc3ccccc3)on2)c1 (stereo not given),,"inconclusive: 89.1 µM [inhibitor, single point]"
CN(c1ncccc1CNc1nc(Nc2ccc3c(c2)CC(=O)N3)ncc1C(F)(F)F)S(C)(=O)=O,,"inconclusive: 38.5 µM [inhibitor, single point]"
O=C1C(=O)N(c2ccccn2)C(c2cccc(Oc3ccccc3)c2)/C1=C(\O)c1ccccc1 (stereo not given),,"inconclusive: 7.94 µM [inhibitor, full curve, poor fit]"
COC(=O)c1ccccc1NC(=O)CSc1nc(C)cc(C)n1,inactive: 16.3%,
CCc1cc(=O)oc2cc(OCC(=O)NCc3ccncc3)ccc12,,"inconclusive: 3.55 µM [inhibitor, full curve, poor fit]"
O=C(c1ccc(Oc2ccccc2)cc1)N1CCNc2cnc(Nc3cccnc3)nc2C1,,"inconclusive: 22.4 µM [inhibitor, full curve, poor fit]"
COc1ccc(-c2sc(Nc3cccc4ccccc34)n[n+]2C)c(C)c1C,,"inconclusive: 56.2 µM [inhibitor, partial curve, poor fit]"
COC(=O)C1=C(C)NC(=S)NC1c1cccc(OC)c1 (stereo not given),inactive: -25.2%,
CC(=O)Nc1cncc(-c2cccc(C(=O)N(C)C)c2)n1,,"inconclusive: 15.8 µM [inhibitor, full curve]"

Compound,"activity change, negative = inhibition",Potency
O=C1OCCCN1C1CCN(S(=O)(=O)c2cccs2)CC1,inactive: 9.39% [at 6.33 µM],
Nc1ccc2nc(-c3ccccc3)c(-c3ccccc3)nc2c1,inactive: -22.2%,
COc1cccc(C(=O)N2C(C(=O)NC3CC3)COC23CCN(C(=O)c2cccc(F)c2)CC3)c1 (stereo not given),,"inconclusive: 12.6 µM [inhibitor, partial curve]"
COc1cc(/C=N/Nc2nncn2N)ccc1OCc1c(C)no[n+]1[O-],,"inconclusive: 100 µM [inhibitor, single point]"
O=C1NC[C@H](c2ccccc2)OC(=O)[C@H](Cc2ccc(F)cc2)CC/C=C/C[C@H]1CC(=O)N(CCO)Cc1ccccc1,,"inconclusive: 141 µM [inhibitor, single point]"
CCN(C(=O)C(=O)c1c(C)n(C)c2ccccc12)c1ccccc1,,"inconclusive: 4.47 µM [inhibitor, full curve, poor fit]"
C(=C1CC(=Cn2c3ccccc3c3ccccc32)C1)n1c2ccccc2c2ccccc21,,"inconclusive: 39.8 µM [inhibitor, partial curve, poor fit]"
O=C(NC1CCCc2ccccc21)C1CC2CCCC(C1)C2=O (stereo not given),,"inconclusive: 89.1 µM [inhibitor, single point]"
O=C(N[C@@H]1CCC[C@@H]1C(=O)N1CCN(c2ccccn2)CC1)c1ccncc1,,"inconclusive: 1.12 µM [inhibitor, full curve, poor fit]"
COc1ccccc1NC(=S)NCC1CCCO1 (stereo not given),,"inconclusive: 50.1 µM [inhibitor, partial curve, poor fit]"
CC(C)(C)OC(=O)N1CCC(C(=O)Nc2cccc(C(=O)NCCCCc3ccccc3)c2)CC1,,"inconclusive: 44.7 µM [inhibitor, partial curve, poor fit]"
Cc1nc(NC(C)C)sc1C(=O)Nc1ccccc1,,"inconclusive: 12.6 µM [inhibitor, full curve]"
CC(=O)c1cccc(NC(=O)Cn2cc(C(=O)c3cccc(Cl)c3)c(=O)c3ccc(C)nc32)c1,inactive: -11.7%,
O=C(CCCCCN1C(=O)c2ccccc2C1=O)Nc1cccc(O)c1,,"inconclusive: 1.12 µM [inhibitor, full curve, poor fit]"
CN1CCN(Cc2nc3ccccc3c(=O)n2Cc2nc(-c3ccc4ccccc4c3)cs2)CC1,,"inconclusive: 20 µM [inhibitor, partial curve, poor fit] and inconclusive: 50.1 µM [inhibitor, partial curve, poor fit]"
COc1ccc(OC)c(S(=O)(=O)N2CCN(Cc3nc4ccc(C)cc4o3)CC2)c1,,"inconclusive: 141 µM [inhibitor, partial curve, poor fit]"
Cc1nc2cc(-c3cccs3)nn2c(NCC(C)(C)CN(C)C)c1C,inactive: -0.255%,
COc1ccccc1NS(=O)(=O)c1cc(NC(=O)c2ccco2)ccc1N1CCOCC1,inactive: 0%,
COCCn1c(C)cc(/C=C(\C#N)C(=O)OC(C)C(=O)Nc2ccc(NC(C)=O)cc2)c1C (stereo not given),,"inconclusive: 44.7 µM [inhibitor, partial curve]"
Fc1c(C(F)(F)F)nc2ccc(Br)cn12,,"inconclusive: 35.5 µM [inhibitor, partial curve]"

Compound,"activity change, negative = inhibition",Potency
Cc1cc2oc(=O)cc(CN3CCOCC3)c2cc1O,,"inconclusive: 0.355 µM [inhibitor, full curve, poor fit]"
O=C(NNc1c([N+](=O)[O-])cc(C(F)(F)F)cc1[N+](=O)[O-])c1ccco1,,"inconclusive: 2.51 µM [inhibitor, full curve]"
Cc1ccc(S(=O)(=O)Nc2ccc3[nH]c(=O)[nH]c3c2)c(C)c1,,"inconclusive: 50.1 µM [inhibitor, partial curve, poor fit]"
Brc1ccc(CN2CCSCC2)cc1,,"inconclusive: 0.794 µM [inhibitor, full curve, poor fit]"
CSCCC(NC(=O)c1ccc(=O)n(C)n1)c1nc2ccccc2[nH]1 (stereo not given),,"inconclusive: 44.7 µM [inhibitor, partial curve, poor fit]"
COc1cc(NC(=O)c2ccc3c(c2)OCO3)ccc1NC(=O)c1ccco1,,"inconclusive: 56.2 µM [inhibitor, partial curve, poor fit]"
CCNc1cc2c(cc1O)CCC1C2CCC2(C)C(O)CCC12 (stereo not given),,"inconclusive: 20 µM [inhibitor, partial curve, poor fit]"
C/C(=N\NC(=O)c1cccc(S(=O)(=O)N2CCOCC2)c1)c1ccc(O)cc1,,"inconclusive: 20 µM [inhibitor, single point]"
C=CCN1C(=O)/C(=C/C=C2/N(CC)c3ccc(S(=O)(=O)N(C)C)cc3N2CC)SC1=S,inactive: -25.9%,
Cn1nc(C(=O)OCC(=O)NC2CC2)c2ccccc2c1=O,inactive: -2.1%,
CC(C1CC1)N(C)C(=O)/C=C/c1cccc(C#N)c1 (stereo not given),,"inconclusive: 112 µM [inhibitor, single point]"
COc1ccc(C(=O)Nc2ccc([C@@H](O)[C@H]3COCC(=O)N3Cc3ccccc3F)cc2)cc1,,"inconclusive: 100 µM [inhibitor, partial curve, poor fit]"
Cc1ccccc1-c1noc(-c2cc3c(COC(=O)C(C)C)cnc(C)c3oc2=O)n1,,"inconclusive: 3.98 µM [inhibitor, full curve, poor fit]"
CC(=O)Nc1cc(C(=O)NCCC2=CCCCC2)ccc1Sc1ccc(C)cc1,,"inconclusive: 63.1 µM [inhibitor, partial curve, poor fit]"
CC1(C)CC(=O)C/C(=N/Nc2nc3ccccc3s2)C1,,"inconclusive: 39.8 µM [inhibitor, partial curve, poor fit]"
COc1ccccc1N1CCN(CCNC(=O)Nc2cccc(C)c2C)CC1,inactive: -1.44%,
Cc1cccc(NC(=O)CCN2CCN(C)CC2)c1,inactive: 10.9%,
COc1cc(/C=N/n2c(-c3ccccc3)n[nH]c2=S)cc(OC)c1OC,,active: 28.2 µM
Cc1nc(C)c(C(=O)Nc2nn(Cc3ccccc3)c3cccc(OC(C)C)c23)o1,,"inconclusive: 17.8 µM [inhibitor, full curve, poor fit]"
CCCCOc1ccc(C(=O)NCC(=O)N(C)CC(=O)Nc2ccc(N3CCOCC3)cc2)cc1,,"inconclusive: 100 µM [inhibitor, single point]"
